# Measured values from patent US20080096967A1, “Formulations for Injection of Catecholic Butanes, Including Ndga Compounds, Into Animals” (priority 2005, published 2008).
# This continues a long series; more values of the same kind are listed elsewhere.
# Assays:
# [1] = Solubility of M4N in water-insoluble lipids (visual inspection); type: physicochemical
# [2] = Solubility of M4N in non-ionic surfactants (Table 21, visual inspection); type: physicochemical
# Experimental: A 10 mL solution of M4N at a concentration of about 60 mg/mL in Tween® 20 was made as follows. About 10 mL of Tween® 20 were added to a glass beaker containing a stir bar. The beaker was placed on a magnetic plate and the stir bar was set to stir at medium speed. About 600 mg of M4N were slowly added to the Tween® 20 in the center of the beaker with the aid of a spatula to prevent M4N from sticking to the beaker wall. The M4N/Tween® 20 mixture was stirred for 2 hr or until all M4N had dissolved or was uniformly suspended without any clumps being present. The M4N/Tween® 20 mixture was heated at about 60° C. for about 30 min. (or longer if a larger volume of solution was desired, for example, 1 hr at 60° C. for 500 mL of the M4N/Tween® 20 mixture), or longer as need to ensure complete dissolution of M4N. […] The final M4N/Tween® 20 solution was stored at room temperature and was kept protected from light. If crystals were to form during storage, the M4N/Tween® 20 solution could be heated again at 60° C. for about 1 hr, with stirring, on a hot magnetic plate or until all M4N was dissolved back in solution.
# This process may be scaled up or down to obtain the requisite volume or concentration of M4N and the heating temperature may be increased or decreased to achieve dissolution of M4N. Formulations containing M4N in other non-ionic surfactant, ionic surfactants or amphiphilic molecules may be similarly made, such as, for example, by substituting Tween® 20 in the process described above with Tween® 80, other solubilizing agents, and combinations thereof.
# [3] = 33% Peppermint Oil, 33% Tween ® 20, 33% PEG 400, M4N 60 mg/mL
# [4] = 40% Peppermint Oil, 40% PEG 400, 20% Glycerol, M4N 52 mg/mL
# [5] = 45% Peppermint Oil, 45% PEG 400, 10% Glycerol, M4N 59 mg/mL
# [6] = 50% Peppermint Oil, 50% PEG 300, M4N 40 mg/mL
# [7] = 50% Peppermint Oil, 50% PEG 300, M4N 60 mg/mL
# [8] = 50% Peppermint Oil, 50% PEG 300, M4N 125 mg/mL
# [9] = 50% Peppermint Oil, 50% PEG 400, M4N 40 mg/mL
# [10] = 50% Peppermint Oil, 50% PEG 400, M4N 60 mg/mL
# [11] = 50% Peppermint Oil, 50% PEG 400, M4N 100 mg/mL
# [12] = 50% Peppermint Oil, 50% PEG 400, M4N 125 mg/mL
# [13] = 50% Peppermint Oil, 50% Sesame Oil, M4N 40 mg/mL
# [14] = 50% Peppermint Oil, 50% Sesame Oil, M4N 60 mg/mL
# [15] = 50% Peppermint Oil, 50% Tween ® 20, M4N 40 mg/mL
# [16] = 50% Peppermint Oil, 50% Tween ® 20, M4N 60 mg/mL
# [17] = 50% Peppermint Oil, 50% Tween ® 20, M4N 125 mg/mL
# [18] = 60% Peppermint Oil, 40% PEG 300, M4N 60 mg/mL
# [19] = 60% Peppermint Oil, 40% PEG 400, M4N 60 mg/mL
# [20] = 75% Sesame Oil, 9% Tween ® 20, 16% Glycerol, M4N 24.3 mg/mL
# [21] = 80% Olive Oil, 20% Soybean Oil, M4N 60 mg/mL
# [22] = 85% Sesame Oil, 15% Tween ® 20, M4N 40 mg/mL
# [23] = 85% Sesame Oil, 15% Tween ® 20, M4N 60 mg/mL
# [24] = 89% Sesame Oil, 11% Tween ® 20, M4N 29 mg/mL
# [25] = 100% Mineral Oil, M4N 100 mg/mL
# [26] = 100% Mineral Oil, M4N 200 mg/mL
# [27] = 50% Tween ® 20, 50% PEG 400, M4N 30 mg/mL
# [28] = 50% Tween ® 20, 50% PEG 400, M4N 40 mg/mL
# [29] = 50% Tween ® 20, 50% PEG 400, M4N 50 mg/mL
# [30] = 50% Tween ® 20, 50% PEG 400, M4N 60 mg/mL
# [31] = Tween ® 20 100% (v/v), M4N 10 mg/mL
# [32] = Tween ® 20 100% (v/v), M4N 20 mg/mL
# [33] = Tween ® 20 100% (v/v), M4N 40 mg/mL
# [34] = Tween ® 20 100% (v/v), M4N 60 mg/mL
# [35] = Tween ® 20 100% (v/v), M4N 80 mg/mL
# [36] = Tween ® 20 100% (v/v), M4N 100 mg/mL
# [37] = Tween ® 80 100% (v/v), M4N 10 mg/mL
# [38] = Tween ® 80 100% (v/v), M4N 50 mg/mL
smiles,measurement,setting,value
"COc1ccc(C[C@@H](C)[C@@H](C)Cc2ccc(OC)c(OC)c2)cc1OC [Formulation M4N, meso-1,4-bis(3,4-dimethoxyphenyl)-2,3-dimethylbutane]",Dissolution After Cool-Down,[1]; [3],Y
same,Dissolution After Rotation,[1]; [3],N
same,Dissolution After Cool-Down,[1]; [4],N
same,Dissolution After Rotation,[1]; [4],N
same,Dissolution After Cool-Down,[1]; [5],N
same,Dissolution After Rotation,[1]; [5],N
same,Dissolution After Cool-Down,[1]; [6],Y
same,Dissolution After Rotation,[1]; [6],N
same,Dissolution After Cool-Down,[1]; [7],Y
same,Dissolution After Rotation,[1]; [7],N
same,Dissolution After Cool-Down,[1]; [8],N
same,Dissolution After Rotation,[1]; [8],N
same,Dissolution After Cool-Down,[1]; [9],Y
same,Dissolution After Rotation,[1]; [9],N
same,Dissolution After Cool-Down,[1]; [10],Y
same,Dissolution After Rotation,[1]; [10],N
same,Dissolution After Cool-Down,[1]; [11],N
same,Dissolution After Rotation,[1]; [11],N
same,Dissolution After Cool-Down,[1]; [12],N
same,Dissolution After Rotation,[1]; [12],N
same,Dissolution After Rotation,"[1]; 50% Peppermint Oil, 50% Sesame Oil, M4N 20 mg/mL",Y
same,Dissolution After Cool-Down,[1]; [13],Y
same,Dissolution After Rotation,[1]; [13],N
same,Dissolution After Cool-Down,[1]; [14],Y
same,Dissolution After Rotation,[1]; [14],N
same,Dissolution After Cool-Down,[1]; [15],Y
same,Dissolution After Rotation,[1]; [15],N
same,Dissolution After Cool-Down,[1]; [16],Y
same,Dissolution After Rotation,[1]; [16],N
same,Dissolution After Cool-Down,[1]; [17],N
same,Dissolution After Rotation,[1]; [17],N
same,Dissolution After Cool-Down,[1]; [18],Y
same,Dissolution After Rotation,[1]; [18],N
same,Dissolution After Cool-Down,[1]; [19],N
same,Dissolution After Rotation,[1]; [19],N
same,Dissolution After Cool-Down,[1]; [20],Y
same,Dissolution After Rotation,[1]; [20],N
same,Dissolution After Cool-Down,[1]; [21],N
same,Dissolution After Rotation,[1]; [21],N
same,Dissolution After Cool-Down,[1]; [22],N
same,Dissolution After Rotation,[1]; [22],N
same,Dissolution After Cool-Down,[1]; [23],N
same,Dissolution After Rotation,[1]; [23],N
same,Dissolution After Cool-Down,[1]; [24],Y
same,Dissolution After Rotation,[1]; [24],N
same,Dissolution After Cool-Down,"[1]; 100% Corn Oil, M4N 1 mg/mL",Y
same,Dissolution After Rotation,"[1]; 100% Corn Oil, M4N 1 mg/mL",N
same,Dissolution After Cool-Down,"[1]; 100% Corn Oil, M4N 10 mg/mL",Y
same,Dissolution After Rotation,"[1]; 100% Corn Oil, M4N 10 mg/mL",N
same,Dissolution After Cool-Down,"[1]; 100% Corn Oil, M4N 20 mg/mL",Y
same,Dissolution After Rotation,"[1]; 100% Corn Oil, M4N 20 mg/mL",N
same,Dissolution After Cool-Down,"[1]; 100% Corn Oil, M4N 40 mg/mL",Y
same,Dissolution After Rotation,"[1]; 100% Corn Oil, M4N 40 mg/mL",N
same,Dissolution After Cool-Down,"[1]; 100% Corn Oil, M4N 50 mg/mL",Y
same,Dissolution After Rotation,"[1]; 100% Corn Oil, M4N 50 mg/mL",N
same,Dissolution After Cool-Down,"[1]; 100% Corn Oil, M4N 60 mg/mL",Y
same,Dissolution After Rotation,"[1]; 100% Corn Oil, M4N 60 mg/mL",N
same,Dissolution After Cool-Down,"[1]; 100% Corn Oil, M4N 100 mg/mL",N
same,Dissolution After Rotation,"[1]; 100% Corn Oil, M4N 100 mg/mL",N
same,Dissolution After Cool-Down,"[1]; 100% Mineral Oil, M4N 10 mg/mL",Y
same,Dissolution After Rotation,"[1]; 100% Mineral Oil, M4N 10 mg/mL",N
same,Dissolution After Cool-Down,"[1]; 100% Mineral Oil, M4N 50 mg/mL",Y
same,Dissolution After Rotation,"[1]; 100% Mineral Oil, M4N 50 mg/mL",N
same,Dissolution After Cool-Down,[1]; [25],N
same,Dissolution After Rotation,[1]; [25],N
same,Dissolution After Cool-Down,[1]; [26],N
same,Dissolution After Rotation,[1]; [26],N
same,Dissolution After Cool-Down,"[1]; 100% Olive Oil, M4N 30 mg/mL",N
same,Dissolution After Rotation,"[1]; 100% Olive Oil, M4N 30 mg/mL",N
same,Dissolution After Rotation,"[1]; 100% Sesame Oil, M4N 10 mg/mL",Y
same,Dissolution After Cool-Down,"[1]; 100% Sesame Oil, M4N 20 mg/mL",Y
same,Dissolution After Rotation,"[1]; 100% Sesame Oil, M4N 20 mg/mL",N
same,Dissolution After Cool-Down,"[1]; 100% Sesame Oil, M4N 30 mg/mL",Y
same,Dissolution After Rotation,"[1]; 100% Sesame Oil, M4N 30 mg/mL",N
same,Dissolution After Cool-Down,"[1]; 100% Sesame Oil, M4N 50 mg/mL",Y
same,Dissolution After Rotation,"[1]; 100% Sesame Oil, M4N 50 mg/mL",N
same,Dissolution After Cool-Down,"[1]; 100% Soybean Oil, M4N 10 mg/mL",Y
same,Dissolution After Rotation,"[1]; 100% Soybean Oil, M4N 10 mg/mL",N
same,Dissolution After Cool-Down,"[1]; 100% Soybean Oil, M4N 30 mg/mL",N
same,Dissolution After Rotation,"[1]; 100% Soybean Oil, M4N 30 mg/mL",N
same,Dissolution After Cool-Down,"[1]; 100% Soybean Oil, M4N 50 mg/mL",N
same,Dissolution After Rotation,"[1]; 100% Soybean Oil, M4N 50 mg/mL",N
same,Dissolution After Rotation,"[1]; Peppermint Oil, M4N 1 mg/mL",Y
same,Dissolution After Rotation,"[1]; Peppermint Oil, M4N 10 mg/mL",Y
same,Dissolution After Rotation,"[1]; Peppermint Oil, M4N 20 mg/mL",Y
same,Dissolution After Cool-Down,"[1]; Peppermint Oil, M4N 40 mg/mL",Y
same,Dissolution After Rotation,"[1]; Peppermint Oil, M4N 40 mg/mL",N
same,Dissolution After Cool-Down,"[1]; Peppermint Oil, M4N 60 mg/mL",Y
same,Dissolution After Rotation,"[1]; Peppermint Oil, M4N 60 mg/mL",N
same,Dissolution After Cool-Down,"[1]; Peppermint Oil, M4N 100 mg/mL",Y
same,Dissolution After Rotation,"[1]; Peppermint Oil, M4N 100 mg/mL",N
same,Dissolution After Cool-Down,"[1]; Peppermint Oil, M4N 125 mg/mL",Y
same,Dissolution After Rotation,"[1]; Peppermint Oil, M4N 125 mg/mL",N
same,Dissolution After Rotation,"[1]; Sesame Oil and Tween ® 20: 10% Oil emulsion in 90% saline, M4N 2.9 mg/mL",Y
same,Dissolution After Rotation,"[1]; Sesame Oil, Tween ® 20 and Glycerol: 10% Oil emulsion in 90% saline, M4N 2.4 mg/mL",Y
same,Dissolution After Cool Down,[2]; [27],Y
same,Dissolution After Rotation,[2]; [27],N
same,Dissolution After Cool Down,[2]; [28],Y
same,Dissolution After Rotation,[2]; [28],N
same,Dissolution After Cool Down,[2]; [29],Y
same,Dissolution After Rotation,[2]; [29],N
same,Dissolution After Cool Down,[2]; [30],Y
same,Dissolution After Rotation,[2]; [30],N
same,concentration up to which M4N was soluble (highest tested),"[2]; 50% Tween® 20 and 50% PEG 400, heated at 65° C.",≤ 60000 µg/mL
same,Dissolution After Rotation,"[2]; Tween ® 20 100% (v/v), M4N 1 mg/mL",Y
same,Dissolution After Cool Down,[2]; [31],Y
same,Dissolution After Rotation,[2]; [31],N
same,Dissolution After Cool Down,[2]; [32],Y
same,Dissolution After Rotation,[2]; [32],N
same,Dissolution After Cool Down,[2]; [33],Y
same,Dissolution After Rotation,[2]; [33],N
same,Dissolution After Cool Down,[2]; [34],Y
same,Dissolution After Rotation,[2]; [34],N
same,Dissolution After Cool Down,[2]; [35],N
same,Dissolution After Rotation,[2]; [35],N
same,Dissolution After Cool Down,[2]; [36],N
same,Dissolution After Rotation,[2]; [36],N
same,Dissolution After Rotation,"[2]; Tween ® 80 100% (v/v), M4N 1 mg/mL",Y
same,Dissolution After Cool Down,[2]; [37],Y
same,Dissolution After Rotation,[2]; [37],N
same,Dissolution After Cool Down,[2]; [38],Y
same,Dissolution After Rotation,[2]; [38],N
